Experimental data as given in article PMC7709239.
Results are given in words; binding and its absence hold for the method and conditions named. Binding seen in cells or lysates may run through a third protein. Here binding means that the protein was enriched with, or labelled near, the bait; the list need not be complete. Sequences can lack the tags named with a protein.

Amino acid sequences for entries named in this document (tags omitted). Residues count along the entry.
UniProt P08758: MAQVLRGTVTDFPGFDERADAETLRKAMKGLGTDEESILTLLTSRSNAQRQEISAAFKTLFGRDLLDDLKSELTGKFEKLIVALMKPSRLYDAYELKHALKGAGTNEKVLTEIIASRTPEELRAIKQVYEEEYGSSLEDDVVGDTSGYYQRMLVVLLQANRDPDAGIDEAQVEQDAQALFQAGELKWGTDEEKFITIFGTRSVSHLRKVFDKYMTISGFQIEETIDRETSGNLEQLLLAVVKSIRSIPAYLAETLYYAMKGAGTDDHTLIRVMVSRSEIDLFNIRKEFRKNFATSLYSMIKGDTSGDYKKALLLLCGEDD
UniProt P14314, residues 15-528: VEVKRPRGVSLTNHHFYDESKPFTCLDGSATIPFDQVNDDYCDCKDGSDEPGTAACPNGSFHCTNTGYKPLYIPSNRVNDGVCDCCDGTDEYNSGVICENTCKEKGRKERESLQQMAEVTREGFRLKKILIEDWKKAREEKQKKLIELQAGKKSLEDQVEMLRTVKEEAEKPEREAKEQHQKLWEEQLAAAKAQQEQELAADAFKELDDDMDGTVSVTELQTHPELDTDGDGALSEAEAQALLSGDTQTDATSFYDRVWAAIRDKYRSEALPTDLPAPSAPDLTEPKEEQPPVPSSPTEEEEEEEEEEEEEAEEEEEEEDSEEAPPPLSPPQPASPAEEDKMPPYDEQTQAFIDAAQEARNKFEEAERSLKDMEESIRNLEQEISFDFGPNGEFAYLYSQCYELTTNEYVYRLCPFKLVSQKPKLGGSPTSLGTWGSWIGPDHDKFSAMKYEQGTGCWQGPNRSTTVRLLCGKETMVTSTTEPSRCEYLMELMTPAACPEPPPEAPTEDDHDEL
UniProt P18669: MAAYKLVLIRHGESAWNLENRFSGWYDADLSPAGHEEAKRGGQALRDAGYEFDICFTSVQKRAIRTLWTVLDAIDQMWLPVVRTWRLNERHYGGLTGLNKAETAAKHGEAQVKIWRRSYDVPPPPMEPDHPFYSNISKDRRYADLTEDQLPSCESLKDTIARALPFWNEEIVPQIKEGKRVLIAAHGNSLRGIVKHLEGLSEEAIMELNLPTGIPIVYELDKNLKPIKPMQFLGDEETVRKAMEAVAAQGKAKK
UniProt P07437: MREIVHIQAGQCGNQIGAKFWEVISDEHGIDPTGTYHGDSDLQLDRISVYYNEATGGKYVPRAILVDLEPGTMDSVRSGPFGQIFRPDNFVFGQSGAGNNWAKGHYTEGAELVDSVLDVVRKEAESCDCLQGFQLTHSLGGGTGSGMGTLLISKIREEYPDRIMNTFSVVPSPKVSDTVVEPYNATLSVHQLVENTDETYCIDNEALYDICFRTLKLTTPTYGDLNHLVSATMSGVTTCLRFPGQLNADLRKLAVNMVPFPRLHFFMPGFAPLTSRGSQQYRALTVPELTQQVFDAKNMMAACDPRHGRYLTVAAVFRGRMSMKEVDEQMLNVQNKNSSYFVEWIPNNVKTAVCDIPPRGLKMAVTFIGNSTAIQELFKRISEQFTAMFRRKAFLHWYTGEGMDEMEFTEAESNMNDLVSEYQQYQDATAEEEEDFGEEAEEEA
UniProt P68371: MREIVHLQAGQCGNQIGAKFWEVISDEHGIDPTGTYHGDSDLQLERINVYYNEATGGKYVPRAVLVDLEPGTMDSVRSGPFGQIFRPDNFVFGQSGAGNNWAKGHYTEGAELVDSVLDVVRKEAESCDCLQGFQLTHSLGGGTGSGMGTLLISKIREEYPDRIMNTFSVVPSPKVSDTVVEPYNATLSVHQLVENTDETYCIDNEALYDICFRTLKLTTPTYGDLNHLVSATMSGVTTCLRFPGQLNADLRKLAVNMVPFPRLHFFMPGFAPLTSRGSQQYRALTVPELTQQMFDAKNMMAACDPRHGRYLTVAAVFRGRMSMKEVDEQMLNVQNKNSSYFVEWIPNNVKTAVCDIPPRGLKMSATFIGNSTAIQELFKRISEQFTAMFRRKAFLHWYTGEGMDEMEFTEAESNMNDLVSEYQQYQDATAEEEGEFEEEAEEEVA
UniProt Q9BUF5: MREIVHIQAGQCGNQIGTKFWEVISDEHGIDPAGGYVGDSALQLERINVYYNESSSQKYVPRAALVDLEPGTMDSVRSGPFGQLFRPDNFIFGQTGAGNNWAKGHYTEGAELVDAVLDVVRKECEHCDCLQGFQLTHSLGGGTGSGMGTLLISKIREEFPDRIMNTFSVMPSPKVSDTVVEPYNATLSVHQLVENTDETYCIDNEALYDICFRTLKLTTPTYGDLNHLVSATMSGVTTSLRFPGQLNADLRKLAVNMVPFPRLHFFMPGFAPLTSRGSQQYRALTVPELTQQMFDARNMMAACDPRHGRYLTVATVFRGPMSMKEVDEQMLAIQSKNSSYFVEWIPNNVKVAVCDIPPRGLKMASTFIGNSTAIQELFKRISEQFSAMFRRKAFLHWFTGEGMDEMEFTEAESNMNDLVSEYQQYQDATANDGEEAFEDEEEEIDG
UniProt Q702N8: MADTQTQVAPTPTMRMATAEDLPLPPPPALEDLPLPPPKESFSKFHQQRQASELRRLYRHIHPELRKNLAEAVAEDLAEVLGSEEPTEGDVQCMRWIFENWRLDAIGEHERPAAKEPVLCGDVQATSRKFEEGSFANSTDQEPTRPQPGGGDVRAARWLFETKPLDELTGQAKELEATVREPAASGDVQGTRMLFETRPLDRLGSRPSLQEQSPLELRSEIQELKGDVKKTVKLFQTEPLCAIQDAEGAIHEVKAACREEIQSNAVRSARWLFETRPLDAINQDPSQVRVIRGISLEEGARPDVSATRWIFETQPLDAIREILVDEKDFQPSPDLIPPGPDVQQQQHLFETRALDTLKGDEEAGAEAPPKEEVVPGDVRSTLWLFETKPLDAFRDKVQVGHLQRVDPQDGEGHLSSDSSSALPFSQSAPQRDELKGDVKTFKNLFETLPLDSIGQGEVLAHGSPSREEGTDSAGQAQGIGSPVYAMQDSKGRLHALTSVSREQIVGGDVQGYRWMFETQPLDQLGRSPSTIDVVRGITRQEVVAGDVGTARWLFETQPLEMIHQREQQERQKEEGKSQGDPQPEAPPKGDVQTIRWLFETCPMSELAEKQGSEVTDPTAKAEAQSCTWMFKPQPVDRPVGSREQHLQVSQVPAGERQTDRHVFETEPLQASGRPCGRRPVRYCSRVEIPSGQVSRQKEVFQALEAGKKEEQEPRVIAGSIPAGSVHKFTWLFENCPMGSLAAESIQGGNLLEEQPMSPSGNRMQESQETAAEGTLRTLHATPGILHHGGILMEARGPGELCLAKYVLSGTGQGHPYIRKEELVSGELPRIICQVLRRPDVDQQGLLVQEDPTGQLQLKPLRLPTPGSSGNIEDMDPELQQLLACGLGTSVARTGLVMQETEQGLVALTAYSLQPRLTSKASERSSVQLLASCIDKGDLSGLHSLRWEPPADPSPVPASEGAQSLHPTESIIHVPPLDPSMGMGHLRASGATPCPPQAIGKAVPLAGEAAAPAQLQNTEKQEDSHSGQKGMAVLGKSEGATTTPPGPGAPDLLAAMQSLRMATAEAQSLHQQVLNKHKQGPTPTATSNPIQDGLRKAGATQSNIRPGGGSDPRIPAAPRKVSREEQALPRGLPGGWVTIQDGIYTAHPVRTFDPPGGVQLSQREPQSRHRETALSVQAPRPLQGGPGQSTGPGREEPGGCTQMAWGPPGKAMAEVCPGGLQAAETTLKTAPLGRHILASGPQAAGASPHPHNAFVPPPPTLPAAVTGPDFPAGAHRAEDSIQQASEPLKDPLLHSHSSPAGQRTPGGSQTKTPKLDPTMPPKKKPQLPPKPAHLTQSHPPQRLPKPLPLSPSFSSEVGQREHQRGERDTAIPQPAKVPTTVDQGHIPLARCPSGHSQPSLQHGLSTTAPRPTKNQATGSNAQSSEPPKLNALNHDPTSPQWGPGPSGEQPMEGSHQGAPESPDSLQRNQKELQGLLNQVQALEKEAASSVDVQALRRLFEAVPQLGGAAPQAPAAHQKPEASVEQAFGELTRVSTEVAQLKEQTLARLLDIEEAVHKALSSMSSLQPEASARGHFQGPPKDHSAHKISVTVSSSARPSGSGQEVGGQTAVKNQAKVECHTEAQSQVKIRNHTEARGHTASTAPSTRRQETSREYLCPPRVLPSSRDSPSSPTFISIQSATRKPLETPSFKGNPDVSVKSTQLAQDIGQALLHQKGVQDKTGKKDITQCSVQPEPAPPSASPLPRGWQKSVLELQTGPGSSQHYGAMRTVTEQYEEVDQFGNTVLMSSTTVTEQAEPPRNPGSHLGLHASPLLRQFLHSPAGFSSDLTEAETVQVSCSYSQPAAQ

T1: GST-mouse Popdc1 (aa 114 to 357) fusion protein (mouse) (UniProt Q9ES83)
T1 sequence: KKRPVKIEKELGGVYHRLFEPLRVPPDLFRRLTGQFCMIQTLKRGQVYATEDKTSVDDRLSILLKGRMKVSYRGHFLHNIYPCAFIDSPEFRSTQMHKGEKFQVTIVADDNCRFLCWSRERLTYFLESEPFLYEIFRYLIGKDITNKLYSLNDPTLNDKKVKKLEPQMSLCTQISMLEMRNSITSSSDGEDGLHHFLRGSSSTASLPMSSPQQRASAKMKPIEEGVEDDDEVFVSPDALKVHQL

B1: Fructose-bisphosphate aldolase A (enzyme, UniProt P04075 1-364)
chain: MPYQYPALTPEQKKELSDIAHRIVAPGKGILAADESTGSIAKRLQSIGTENTEENRRFYRQLLLTADDRVNPCIGGVILFHETLYQKADDGRPFPQVIKSKGGVVGIKVDKGVVPLAGTNGETTTQGLDGLSERCAQYKKDGADFAKWRCVLKIGEHTPSALAIMENANVLARYASICQQNGIVPIVEPEILPDGDHDLKRCQYVTEKVLAAVYKALSDHHIYLEGTLLKPNMVTPGHACTQKFSHEEIAMATVTALRRTVPPAVTGITFLSGGQSEEEASINLNAINKCPLLKPWALTFSYGRALQASALKAWGGKKENLKAAQEEYVKRALANSLACQGKYTPSGQAGAAASESLFVSNHAY
B2: PDZ and LIM domain protein 3 (protein, UniProt Q53GG5 1-364)
chain: MPQTVILPGPAPWGFRLSGGIDFNQPLVITRITPGSKAAAANLCPGDVILAIDGFGTESMTHADAQDRIKAAAHQLCLKIDRGETHLWSPQVSEDGKAHPFKINLESEPQDGNYFEHKHNIRPKPFVIPGRSSGCSTPSGIDCGSGRSTPSSVSTVSTICPGDLKVAAKLAPNIPLEMELPGVKIVHAQFNTPMQLYSDDNIMETLQGQVSTALGETPLMSEPTASVPPESDVYRMLHDNRNEPTQPRQSGSFRVLQGMVDDGSDDRPAGTRSVRAPVTKVHGGSGGAQRMPLCDKCGSGIVGAVVKARDKYRHPECFVCADCNLNLKQKGYFFIEGELYCETHARARTKPPEGYDTVTLYPKA
B3: Lamina-associated polypeptide 2 (beta/gamma) (protein, UniProt P42167 1-454)
chain: MPEFLEDPSVLTKDKLKSELVANNVTLPAGEQRKDVYVQLYLQHLTARNRPPLPAGTNSKGPPDFSSDEEREPTPVLGSGAAAAGRSRAAVGRKATKKTDKPRQEDKDDLDVTELTNEDLLDQLVKYGVNPGPIVGTTRKLYEKKLLKLREQGTESRSSTPLPTISSSAENTRQNGSNDSDRYSDNEEDSKIELKLEKREPLKGRAKTPVTLKQRRVEHNQSYSQAGITETEWTSGSSKGGPLQALTRESTRGSRRTPRKRVETSEHFRIDGPVISESTPIAETIMASSNESLVVNRVTGNFKHASPILPITEFSDIPRRAPKKPLTRAEVGEKTEERRVERDILKEMFPYEASTPTGISASCRRPIKGAAGRPLELSDFRMEESFSSKYVPKYVPLADVKSEKTKKGRSIPVWIKILLFVVVAVFLFLVYQAMETNQVNPFSNFLHVDPRKSN
B4: Heat shock protein beta-2 (protein, UniProt Q16082 1-182)
chain: MSGRSVPHAHPATAEYEFANPSRLGEQRFGEGLLPEEILTPTLYHGYYVRPRAAPAGEGSRAGASELRLSEGKFQAFLDVSHFTPDEVTVRTVDNLLEVSARHPQRLDRHGFVSREFCRTYVLPADVDPWRVRAALSHDGILNLEAPRGGRHLDTEVNEVYISLLPAPPDPEEEEEAAIVEP

Target: T1, GST-mouse Popdc1 (aa 114 to 357) fusion protein (mouse)
Assay: affinity purification with mass spectrometry; GST-tagged bait on glutathione high capacity magnetic agarose beads, incubated with cultured human myotube extract in RIPA buffer; captured proteins digested with trypsin, nanoLC MSMS; control: beads with no bait; only the target purified

binding, binds:
40S ribosomal protein S30 (human (endogenous in human myotubes))
ATP synthase subunit beta, mitochondrial (from UniProt P06576 48-529)
Annexin A5 (from UniProt P08758 1-320)
Glucosidase 2 subunit beta (from UniProt P14314 15-528)
Phosphoglycerate mutase 1 (from UniProt P18669 1-254) (enzyme)
Tubulin beta chain (from UniProt P07437 1-444)
Tubulin beta-4B chain (from UniProt P68371 1-445)
Tubulin beta-6 chain (from UniProt Q9BUF5 1-446)
Xin actin-binding repeat-containing protein 1 (from UniProt Q702N8 1-1843)
B1
B2
B3
B4
